Some entries share one result that the patent states for a list of compounds.
Test system: mature fat cells
Assay: glucose consumption rate of fat cells in culture medium
Format: cell-based
Settings: 24 hours, drug 30 ug/mL, control group about 20%
Text: Please refer to FIGS. 6A-6C. FIGS. 6A-6C show the results of the activity of the glucose consumption rate of fat cells in the culture medium. As shown in FIGS. 6A-6C, various compounds containing halogens, such as chlorine, bromine and iodine, can increase the glucose consumption rate of fat cells. Many of the deuterium-containing compounds are new ones in this example. […] Symbol ‘Con’ denotes the Control Group, Symbol ‘5’ denotes a 2Br2H compound, Symbol ‘6’ denotes a 2I2H compound, Symbol ‘Met’ denotes a metformin, Symbol ‘AI’ denotes an AMPK inhibitor, Symbol ‘L’ denotes a low-dose usage of 15 ug/mL, and Symbol ‘H’ denotes a high-dose usage of 30 ug/mL
The activity of the glucose consumption rate of fat cells is taken from the following: A testing drug, 2,3-dideutero-1-(2-iodophenyl)-3-(4-methoxyphenyl)propan-1-one with the concentration 30 ug/mL, was cultured with mature fat cells for 24 hours. It was then tested to determine the change of the glucose concentration in the culture medium.
24 hours after the replacement of a culture media, the glucose consumption rate of the control group was about 20%. After insulin was added, the glucose consumption rate of the cells in the control group upgrades to 30%. With the commercial drug, Pioglitazone of 30 ug/mL, the glucose consumption rate of the cells in the corresponding group increased to 40%.

Row | Structure (SMILES) | glucose consumption rate of the cells
1 | [2H]C(C(=O)c1ccccc1I)C([2H])c1ccc(OC)cc1 (centres unmarked) [2I1D, 2,3-dideutero-1-(2-iodophenyl)-3-(4-methoxyphenyl)propan-1-one] | exceed 50%
2 | COc1ccc(/C=C/C(=O)c2ccccc2I)cc1 [2I2H, (E)-1-(2-iodophenyl)-3-(4-methoxyphenyl)prop-2-en-1-one] | exceed 50%

From patent US20160214918A1, “COMPOSITION FOR TREATING METABOLIC SYNDROME AND A PREPARATION METHOD THEREOF” (Kaohsiung Medical University, priority 2015, published 2016)
